Some of these results come from one statement about several compounds together.
Assays:
[1] = Pharmacokinetic study in rats, testosterone plasma concentrations after oral gavage; conditions: SD female rats, dose-normalized
Method: In order to assess the oral bioavailability of the compounds of the invention, pharmacokinetic studies were conducted in rats and dogs. […] The rats were then allowed to regain consciousness and fasted overnight prior to the commencement of experiments with free access to water. […] The oral formulation of Compound 2 contained 3 mg of the compound, 20 mg oleic acid and 12.5 mg Tween 80 dispersed in 1 mL PBS. Blood samples were collected from the carotid artery cannula from 5 min prior to administration up to 24 h post-dosing and centrifuged at 5000 rpm for 5 min to separate plasma. […] Plasma samples were stored at −80° C. prior to assay by HPLC-MS-MS. In this case samples were assayed for free drug (i.e. non-glyceride associated drug) and were not hydrolysed prior to assay (as was the case with the lymph samples).
FIG. 12 illustrates dose-normalized testosterone plasma concentrations following oral gavage of formulations to conscious, carotid artery cannulated female SD rats. Formulations contained 1 mg of TU, or 2 mg of compounds of the invention containing testosterone dispersed in 40 mg oleic acid, 25 mg Tween 80 and 2 ml PBS. Doses are normalized to a 2 mg/kg equivalent dose of testosterone. Data are shown as mean±SEM for all groups (n=4 or 3 for each group). The embedded figure is the plot of the dose-normalized plasma AUC0-24h (nmol×h/L) of testosterone in the form of a bar graph.

[2] = lymphatic transport of total MPA derivatives, male SD rats, intraduodenal infusion
Method: Lipid formulations containing the compound of interest were then administered to the animals, the lymph collected and drug concentrations in the lymph subsequently quantified.
Lipid-based formulations of the compounds of the invention or control compounds were prepared as previously described (Trevaskis, N. L. et al., Pharmaceutical Research, 2005, 22(11), 1863-1870). Briefly, approximately 2 mg of the compound (1 mg in the case of Compound 35 and Compound 1), 40 mg oleic acid and 25 mg Tween 80 were mixed in a glass vial until equilibrated (gentle heat (below 50° C.) may be applied for a short period).
[…] This was to eliminate the potential for the relatively high and variable levels of endogenous testosterone in male rats interfering with the quantification of exogenously dosed testosterone. Rats (240-320 g) were maintained on a standard diet and fasted overnight with free access to water prior to experiments. […] The collection tubes were changed hourly and lymph flow was measured gravimetrically. […]
Drug concentration in lymph is expressed as total drug and includes free drug and drug associated with different glycerides. […]

Row | SMILES | AUC0-24 h fold increase compared with TU group [1] | Fold increase (compared with MPA dosed group) [2]
1 | CCCCCCCCCCCCCCCC(=O)OCC(COC(=O)CCCCCCCCCCCCCCC)OC(=O)CCCCC(=O)O[C@H]1CC[C@H]2[C@@H]3CCC4=CC(=O)CC[C@]4(C)[C@H]3CC[C@]12C [Compound 11] | 12-27 fold | 
2 | CCCCCCCCCCCCCCCC(=O)OCC(COC(=O)CCCCCCCCCCCCCCC)OC(=O)CC(C)CC(=O)Oc1cc(C)cc(C)c1C(C)(C)CC(=O)O[C@H]1CC[C@H]2[C@@H]3CCC4=CC(=O)CC[C@]4(C)[C@H]3CC[C@]12C (stereo partly shown) [Compound 25] | 60-100 fold | 
3 | CCCCCCCCCCCCCCCC(=O)OCC(COC(=O)CCCCCCCCCCCCCCC)OC(=O)CC(C)CCCCCCC(=O)Oc1cc(C)cc(C)c1C(C)(C)CC(=O)O[C@H]1CC[C@H]2[C@@H]3CCC4=CC(=O)CC[C@]4(C)[C@H]3CC[C@]12C (stereo partly shown) [Compound 27] | 60-100 fold | 
4 | CCCCCCCCCCCCCCCC(=O)OCC(COC(=O)CCCCCCCCCCCCCCC)OC(=O)CCCCCOC(=O)CC/C(C)=C/Cc1c(O)c2c(c(C)c1OC)COC2=O [Compound 32] |  | 43˜60 fold

Source: patent publication US11311512B2, “Lymph directing prodrugs” (priority 2014, dated 2022)
